These are yes or no findings as the source states them, for the method shown. Binding seen in cells or lysates may run through a third protein. Some entries that bind do so weakly or less than the wild type.
Columns and labels:
Assay in all cases: co-IP; endogenous proteins of A549 cells treated with 50 uM RSV for the indicated times (with or without 3-MA pre-treatment or P62 siRNA); RIPA lysate, 1 mg total lysate with 2 ug of P62, Fas or Cav-1 antibody and Dynabeads protein G at 4 C; detected by western blot; purified IgG as control
[1] = target: P62 protein, also called sequestosome 1 (SQSTM1) (human (endogenous in A549)) (UniProt Q13501)
[2] = target: Fas (human (endogenous in A549)) (UniProt P25445)
[3] = target: Caveolin-1 (Cav-1) (human (endogenous in A549)) (UniProt Q03135)

Chains of the proteins cited; added tags and fusions are not shown. Lines headed by an entry give the natural chain unless they say otherwise; changes in a name come on top.
UniProt P25445: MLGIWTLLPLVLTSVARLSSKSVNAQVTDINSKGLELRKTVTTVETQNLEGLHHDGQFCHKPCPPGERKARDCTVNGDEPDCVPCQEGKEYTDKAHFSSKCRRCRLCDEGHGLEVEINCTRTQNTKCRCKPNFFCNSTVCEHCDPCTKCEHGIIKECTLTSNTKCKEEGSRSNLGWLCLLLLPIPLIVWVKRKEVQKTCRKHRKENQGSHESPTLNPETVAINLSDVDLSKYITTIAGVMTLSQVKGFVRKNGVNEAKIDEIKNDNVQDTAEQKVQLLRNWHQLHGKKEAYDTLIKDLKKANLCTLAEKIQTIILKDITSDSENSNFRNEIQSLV
UniProt Q03135: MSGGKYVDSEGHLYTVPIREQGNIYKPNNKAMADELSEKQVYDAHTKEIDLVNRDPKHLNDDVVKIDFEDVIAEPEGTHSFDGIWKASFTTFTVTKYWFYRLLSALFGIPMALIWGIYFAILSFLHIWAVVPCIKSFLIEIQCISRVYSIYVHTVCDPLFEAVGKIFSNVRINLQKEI

binding [1]	binding [2]	binding [3]	Substance
binds	binds	–	Caveolin-1 (Cav-1) (from UniProt Q03135 1-178)
binds	–	binds	Fas (from UniProt P25445 26-335) (receptor)

— PMC4359255
